Assay results published in patent US20260258049A1, “Molecules and Methods Related to Treatment of Uncontrolled Cellular Proliferation” (ST. JUDE CHILDREN'S RESEARCH HOSPITAL, priority 2019, published 2026).
For part of its entries the source gives two or more results. The list is limited to them. An entry can have further records. The records of an entry differ for a reason that is not stated; dose, time, organism, isomer or construct need not be as stated for each record.

Experiment: In vivo pharmacokinetic (PK) study
Conditions: NSG mice, single i.p. dose

Question: What does the source list for `CCCn1cc(-c2nc(Nc3ccc(C(=O)NCCCCNc4cccc5c4C(=O)N(C4CCC(=O)NC4=O)C5=O)cc3)nc3[nH]ccc23)cn1` (centres unmarked) [SJ000988497]?
Answer: UClast (dose column prints 0 (30 mg/kg elsewhere in the source), mouse 300-302, listed as compound 7, 30 mg/kg): 350 hr*ng/mL, 759.1 hr*ng/mL, 248.2 hr*ng/mL; UClast (dose column prints 00 (100 mg/kg elsewhere in the source), mouse 303-305, listed as compound 7, 100 mg/kg): 884.7 hr*ng/mL, 179.3 hr*ng/mL, 459 hr*ng/mL
